{"sequences": {"note": "Amino acid sequences for entries named in this document (tags omitted).", "UniProt Q61687": "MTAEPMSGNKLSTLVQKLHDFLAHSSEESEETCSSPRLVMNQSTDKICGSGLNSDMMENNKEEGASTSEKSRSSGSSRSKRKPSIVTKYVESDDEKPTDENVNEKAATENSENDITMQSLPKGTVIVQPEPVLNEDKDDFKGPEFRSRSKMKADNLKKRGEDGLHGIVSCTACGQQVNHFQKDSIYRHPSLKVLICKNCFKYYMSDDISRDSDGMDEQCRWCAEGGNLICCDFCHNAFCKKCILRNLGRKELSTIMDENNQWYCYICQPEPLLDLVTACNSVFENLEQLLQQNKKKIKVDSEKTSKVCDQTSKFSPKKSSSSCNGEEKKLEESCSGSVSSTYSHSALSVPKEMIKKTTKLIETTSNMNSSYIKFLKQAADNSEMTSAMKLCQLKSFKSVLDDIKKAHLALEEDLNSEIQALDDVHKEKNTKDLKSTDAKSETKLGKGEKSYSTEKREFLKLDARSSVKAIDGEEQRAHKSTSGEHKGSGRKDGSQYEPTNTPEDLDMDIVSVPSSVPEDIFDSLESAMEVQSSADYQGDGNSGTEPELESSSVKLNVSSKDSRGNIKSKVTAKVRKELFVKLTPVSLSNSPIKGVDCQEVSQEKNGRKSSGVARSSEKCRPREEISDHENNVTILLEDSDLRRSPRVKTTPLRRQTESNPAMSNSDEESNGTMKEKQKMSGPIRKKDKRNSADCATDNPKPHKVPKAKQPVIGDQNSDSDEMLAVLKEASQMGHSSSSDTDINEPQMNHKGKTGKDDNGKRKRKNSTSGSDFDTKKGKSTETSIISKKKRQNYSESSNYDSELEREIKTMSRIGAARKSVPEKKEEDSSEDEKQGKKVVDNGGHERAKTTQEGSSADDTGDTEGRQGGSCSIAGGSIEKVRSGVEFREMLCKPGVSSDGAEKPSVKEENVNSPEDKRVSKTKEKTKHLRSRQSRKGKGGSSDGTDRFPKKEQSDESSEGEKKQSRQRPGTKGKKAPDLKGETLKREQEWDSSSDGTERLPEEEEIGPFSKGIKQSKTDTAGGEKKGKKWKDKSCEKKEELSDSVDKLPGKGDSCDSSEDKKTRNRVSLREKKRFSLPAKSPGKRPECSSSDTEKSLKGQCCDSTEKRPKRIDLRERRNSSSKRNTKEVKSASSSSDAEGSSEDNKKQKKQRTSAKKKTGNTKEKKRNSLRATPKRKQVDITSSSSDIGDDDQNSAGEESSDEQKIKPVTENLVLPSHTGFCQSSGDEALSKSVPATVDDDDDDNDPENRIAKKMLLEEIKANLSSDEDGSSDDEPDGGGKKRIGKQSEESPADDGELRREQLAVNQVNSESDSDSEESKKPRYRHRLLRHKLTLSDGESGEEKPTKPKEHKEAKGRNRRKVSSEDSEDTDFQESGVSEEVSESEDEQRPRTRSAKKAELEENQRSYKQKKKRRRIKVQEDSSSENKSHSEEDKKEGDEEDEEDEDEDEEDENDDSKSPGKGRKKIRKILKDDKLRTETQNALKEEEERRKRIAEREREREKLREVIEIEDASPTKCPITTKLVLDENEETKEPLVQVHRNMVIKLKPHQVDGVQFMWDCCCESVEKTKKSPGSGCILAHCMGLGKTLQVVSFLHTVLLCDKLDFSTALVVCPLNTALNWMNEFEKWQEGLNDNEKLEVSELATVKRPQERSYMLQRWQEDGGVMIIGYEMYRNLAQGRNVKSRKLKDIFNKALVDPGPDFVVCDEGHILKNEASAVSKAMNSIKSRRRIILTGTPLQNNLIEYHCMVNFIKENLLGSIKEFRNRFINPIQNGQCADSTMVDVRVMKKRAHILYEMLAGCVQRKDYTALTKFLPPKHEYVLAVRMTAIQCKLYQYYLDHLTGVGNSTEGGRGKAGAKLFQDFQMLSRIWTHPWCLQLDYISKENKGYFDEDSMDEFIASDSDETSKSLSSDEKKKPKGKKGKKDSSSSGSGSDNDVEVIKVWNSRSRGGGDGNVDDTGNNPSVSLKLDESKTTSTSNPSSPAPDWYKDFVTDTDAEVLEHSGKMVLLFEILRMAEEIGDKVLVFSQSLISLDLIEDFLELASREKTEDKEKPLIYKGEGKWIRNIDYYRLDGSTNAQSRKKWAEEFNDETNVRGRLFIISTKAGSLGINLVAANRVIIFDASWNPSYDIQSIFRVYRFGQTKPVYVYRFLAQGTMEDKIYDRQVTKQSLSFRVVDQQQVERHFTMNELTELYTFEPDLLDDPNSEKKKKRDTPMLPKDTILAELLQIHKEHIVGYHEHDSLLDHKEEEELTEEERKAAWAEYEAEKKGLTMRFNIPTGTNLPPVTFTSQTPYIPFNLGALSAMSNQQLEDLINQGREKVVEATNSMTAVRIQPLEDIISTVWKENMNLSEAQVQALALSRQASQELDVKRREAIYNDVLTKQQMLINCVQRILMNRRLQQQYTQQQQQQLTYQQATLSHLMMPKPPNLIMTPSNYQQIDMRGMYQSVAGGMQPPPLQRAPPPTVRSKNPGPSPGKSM", "UniProt Q08943": "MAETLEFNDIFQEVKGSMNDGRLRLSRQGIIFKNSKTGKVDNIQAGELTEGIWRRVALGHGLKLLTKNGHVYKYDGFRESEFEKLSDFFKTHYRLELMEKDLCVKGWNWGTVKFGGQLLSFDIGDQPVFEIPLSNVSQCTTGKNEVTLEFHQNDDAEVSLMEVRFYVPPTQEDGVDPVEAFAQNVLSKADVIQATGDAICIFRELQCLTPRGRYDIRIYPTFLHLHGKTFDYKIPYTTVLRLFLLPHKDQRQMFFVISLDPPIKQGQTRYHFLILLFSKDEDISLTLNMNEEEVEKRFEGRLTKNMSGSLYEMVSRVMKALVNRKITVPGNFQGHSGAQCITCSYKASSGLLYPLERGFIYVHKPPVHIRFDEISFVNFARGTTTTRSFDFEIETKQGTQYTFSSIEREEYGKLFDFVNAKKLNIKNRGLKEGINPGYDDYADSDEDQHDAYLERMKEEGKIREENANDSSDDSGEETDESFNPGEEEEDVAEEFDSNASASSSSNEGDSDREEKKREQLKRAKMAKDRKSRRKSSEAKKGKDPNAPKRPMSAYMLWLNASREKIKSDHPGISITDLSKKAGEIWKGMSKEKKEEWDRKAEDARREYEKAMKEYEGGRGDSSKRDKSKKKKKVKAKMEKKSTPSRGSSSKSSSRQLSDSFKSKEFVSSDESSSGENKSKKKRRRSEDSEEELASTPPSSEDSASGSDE"}, "source": "paper PMC4330348", "target": "Atrx (mouse (endogenous in MPC11)) (UniProt Q61687)", "experiment": "affinity purification with mass spectrometry; immunoprecipitation of the endogenous bait with 5 μg antibody on protein G Dynabeads, 4 h, 4°C, 150 mM NaCl, 0.2% Triton X-100 washes; heavy-labelled MPC11 nuclear extracts against light isotype-control IP; SILAC H/L by mass spectrometry", "note": "These are yes or no findings as the source states them, for the method shown. In cells and extracts the contact can be indirect. Here binding means that the protein was enriched with, or labelled near, the bait; the list need not be complete.", "data": [{"substance": "Ssrp1 (from UniProt Q08943 1-708)", "values": [{"measurement": "binding", "result": "binds"}]}]}
